These are yes or no findings as the source states them, for the method shown. Some entries that bind do so weakly or less than the wild type.
Biological target: EGFR (Epidermal Growth Factor Receptor) (human) (UniProt P00533)
Experiment: phage ELISA on coated EGFR

Chains of the proteins cited; added tags and fusions are not shown. Lines headed by an entry give the natural chain unless they say otherwise; changes in a name come on top. A line that says so, or that is headed by a name, gives the form on record, which may keep a tag or linker.
clone 18 of the 1OZJ scaffold (P84022, form named): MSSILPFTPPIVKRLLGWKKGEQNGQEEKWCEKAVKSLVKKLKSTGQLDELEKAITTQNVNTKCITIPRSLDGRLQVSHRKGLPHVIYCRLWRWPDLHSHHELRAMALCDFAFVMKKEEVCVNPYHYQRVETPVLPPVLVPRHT
clone 55 of the 1OZJ scaffold (P84022, form named): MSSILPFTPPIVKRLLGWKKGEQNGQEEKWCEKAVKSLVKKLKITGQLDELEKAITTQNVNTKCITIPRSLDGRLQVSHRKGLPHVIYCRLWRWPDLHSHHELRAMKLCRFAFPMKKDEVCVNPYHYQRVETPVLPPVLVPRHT
clone 34 of the 1OZJ scaffold (P84022, form named): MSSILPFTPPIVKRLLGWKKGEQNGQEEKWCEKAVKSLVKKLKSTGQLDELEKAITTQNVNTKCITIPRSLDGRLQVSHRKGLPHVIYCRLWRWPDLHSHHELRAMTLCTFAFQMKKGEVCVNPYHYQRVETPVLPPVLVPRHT
clone 31 of the 1OZJ scaffold (P84022, form named): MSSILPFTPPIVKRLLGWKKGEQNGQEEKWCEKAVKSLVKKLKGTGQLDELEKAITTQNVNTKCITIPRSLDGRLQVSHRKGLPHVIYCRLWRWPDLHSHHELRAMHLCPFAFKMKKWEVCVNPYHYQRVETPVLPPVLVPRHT
clone 43 of the 1OZJ scaffold (P84022, form named): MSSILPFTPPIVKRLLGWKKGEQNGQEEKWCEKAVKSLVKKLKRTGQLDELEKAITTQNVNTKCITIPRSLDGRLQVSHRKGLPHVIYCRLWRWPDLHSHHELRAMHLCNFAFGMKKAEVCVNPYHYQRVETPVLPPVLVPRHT
clone 54 of the 1OZJ scaffold (P84022, form named): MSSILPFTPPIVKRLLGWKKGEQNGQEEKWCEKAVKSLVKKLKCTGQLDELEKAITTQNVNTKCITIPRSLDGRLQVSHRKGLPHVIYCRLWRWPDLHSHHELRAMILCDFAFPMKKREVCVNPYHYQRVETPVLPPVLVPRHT
clone 35 of the 1OZJ scaffold (P84022, form named): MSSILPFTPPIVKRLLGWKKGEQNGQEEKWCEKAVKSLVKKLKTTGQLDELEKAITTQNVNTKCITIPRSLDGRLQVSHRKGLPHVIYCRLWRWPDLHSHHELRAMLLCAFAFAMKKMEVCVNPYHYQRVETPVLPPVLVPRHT
clone 8 of the 1OZJ scaffold (P84022, form named): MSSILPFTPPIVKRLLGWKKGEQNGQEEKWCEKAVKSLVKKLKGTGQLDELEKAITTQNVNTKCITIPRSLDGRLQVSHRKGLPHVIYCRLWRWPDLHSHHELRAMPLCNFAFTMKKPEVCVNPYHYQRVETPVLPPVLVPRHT
clone 53 of the 1OZJ scaffold (P84022, form named): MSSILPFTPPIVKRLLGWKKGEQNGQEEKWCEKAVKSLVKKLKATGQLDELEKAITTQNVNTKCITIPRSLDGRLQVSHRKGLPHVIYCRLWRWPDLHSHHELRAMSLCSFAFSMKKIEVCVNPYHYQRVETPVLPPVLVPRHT

Substance | binding
clone 24 of the 1OZJ scaffold (from UniProt P84022 1-144) (designed binder) | binds
clone 55 of the 1OZJ scaffold (from UniProt P84022 1-144) (designed binder) | binds
clone 20 of the 1OZJ scaffold (from UniProt P84022 1-144) (designed binder) | binds
clone 31 of the 1OZJ scaffold (from UniProt P84022 1-144) (designed binder) | binds
clone 54 of the 1OZJ scaffold (from UniProt P84022 1-144) (designed binder) | binds
clone 21 of the 1OZJ scaffold (from UniProt P84022 1-144) (designed binder) | binds
clone 35 of the 1OZJ scaffold (from UniProt P84022 1-144) (designed binder) | binds
clone 53 of the 1OZJ scaffold (from UniProt P84022 1-144) (designed binder) | binds

The remaining lines, values ahead:

binding | Substance
binds | clone 18 of the 1OZJ scaffold (from UniProt P84022 1-144) (designed binder)
binds | clone 43 of the 1OZJ scaffold (from UniProt P84022 1-144) (designed binder)
binds | clone 8 of the 1OZJ scaffold (from UniProt P84022 1-144) (designed binder)
binds | clone 34 of the 1OZJ scaffold (from UniProt P84022 1-144) (designed binder)

From US20120071419A1
